Test system: BAF complex subunits and histone proteins
Assay: Mass spectrometry proteomics of purified HA-SS18 WT and HA-SS18-SSX1 complexes (Tables 5A-5E)
Design: species or system human
Conditions: HEK-293T; for Total (peptides) / Unique (peptides): HA-SS18WT_NE_peptides: HA-SS18 WT complexes purified from nuclear extract (NE), label = protein identified (Gene Symbol)
[1] = HA-SS18SSX1 purification, NE (soluble nuclear extract) fraction, peptides per identified protein
[2] = HA-SS18WT_CHR_peptides: protein identified in HA-SS18 WT BAF complex purification from nuclease-treated solubilized chromatin (CHR)

Molecule | Total (total peptides) [1] | Unique (unique peptides) [1] | Total (peptides) | Unique (peptides) | Total (total peptides) [2] | Unique (unique peptides) [2]
CPSF2 (protein, UniProt Q9P2I0 1-782, looked up) Cleavage and polyadenylation …: MTSIIKLTTLSGVQEESALCYLLQVDEFRFLLDCGWDEHFSMDIIDSLRKHVHQIDAVLLSHPDPLHLGALPYAVGKLGLNCAIYATIPVYKMGQMFMYDLYQSRHNTEDFTLFTLDDVDAAFDKIQQLKFSQIVNLKGKGHGLSITPLPAGHMIGGTIWKIVKDGEEEIVYAVDFNHKREIHLNGCSLEMLSRPSLLITDSFNATYVQPRRKQRDEQLLTNVLETLRGDGNVLIAVDTAGRVLELAQLLDQIWRTKDAGLGVYSLALLNNVSYNVVEFSKSQVEWMSDKLMRCFEDKRNNPFQFRHLSLCHGLSDLARVPSPKVVLASQPDLECGFSRDLFIQWCQDPKNSIILTYRTTPGTLARFLIDNPSEKITEIELRKRVKLEGKELEEYLEKEKLKKEAAKKLEQSKEADIDSSDESDIEEDIDQPSAHKTKHDLMMKGEGSRKGSFFKQAKKSYPMFPAPEERIKWDEYGEIIKPEDFLVPELQATEEEKSKLESGLTNGDEPMDQDLSDVPTKCISTTESIEIKARVTYIDYEGRSDGDSIKKIINQMKPRQLIIVHGPPEASQDLAECCRAFGGKDIKVYMPKLHETVDATSETHIYQVRLKDSLVSSLQFCKAKDAELAWIDGVLDMRVSKVDTGVILEEGELKDDGEDSEMQVEAPSDSSVIAQQKAMKSLFGDDEKETGEESEIIPTLEPLPPHEVPGHQSVFMNEPRLSDFKQVLLREGIQAEFVGGVLVCNNQVAVRRTETGRIGLEGCLCQDFYRIRDLLYEQYAIV | 6 | 6 | 7 | 7 | – | –
SFXN2 (protein, UniProt Q96NB2 1-322, looked up) Sideroflexin-2: MEADLSGFNIDAPRWDQRTFLGRVKHFLNITDPRTVFVSERELDWAKVMVEKSRMGVVPPGTQVEQLLYAKKLYDSAFHPDTGEKMNVIGRMSFQLPGGMIITGFMLQFYRTMPAVIFWQWVNQSFNALVNYTNRNAASPTSVRQMALSYFTATTTAVATAVGMNMLTKKAPPLVGRWVPFAAVAAANCVNIPMMRQQELIKGICVKDRNENEIGHSRRAAAIGITQVVISRITMSAPGMILLPVIMERLEKLHFMQKVKVLHAPLQVMLSGCFLIFMVPVACGLFPQKCELPVSYLEPKLQDTIKAKYGELEPYVYFNKGL | 6 | 6 | 4 | 4 | – | –
STT3A (protein, UniProt P46977 1-705, looked up) Dolichyl-diphosphooligosacchar …: MTKFGFLRLSYEKQDTLLKLLILSMAAVLSFSTRLFAVLRFESVIHEFDPYFNYRTTRFLAEEGFYKFHNWFDDRAWYPLGRIIGGTIYPGLMITSAAIYHVLHFFHITIDIRNVCVFLAPLFSSFTTIVTYHLTKELKDAGAGLLAAAMIAVVPGYISRSVAGSYDNEGIAIFCMLLTYYMWIKAVKTGSICWAAKCALAYFYMVSSWGGYVFLINLIPLHVLVLMLTGRFSHRIYVAYCTVYCLGTILSMQISFVGFQPVLSSEHMAAFGVFGLCQIHAFVDYLRSKLNPQQFEVLFRSVISLVGFVLLTVGALLMLTGKISPWTGRFYSLLDPSYAKNNIPIIASVSEHQPTTWSSYYFDLQLLVFMFPVGLYYCFSNLSDARIFIIMYGVTSMYFSAVMVRLMLVLAPVMCILSGIGVSQVLSTYMKNLDISRPDKKSKKQQDSTYPIKNEVASGMILVMAFFLITYTFHSTWVTSEAYSSPSIVLSARGGDGSRIIFDDFREAYYWLRHNTPEDAKVMSWWDYGYQITAMANRTILVDNNTWNNTHISRVGQAMASTEEKAYEIMRELDVSYVLVIFGGLTGYSSDDINKFLWMVRIGGSTDTGKHIKENDYYTPTGEFRVDREGSPVLLNCLMYKMCYYRFGQVYTEAKRPPGFDRVRNAEIGNKDFELDVLEEAYTTEHWLVRIYKVKDLDNRGLSRT | 7 | 7 | 5 | 5 | – | –
ACAD10 (protein, UniProt Q6JQN1 1-1059, looked up) Acyl-CoA dehydrogenase family …: MCVRSCFQSPRLQWVWRTAFLKHTQRRHQGSHRWTHLGGSTYRAVIFDMGGVLIPSPGRVAAEWEVQNRIPSGTILKALMEGGENGPWMRFMRAEITAEGFLREFGRLCSEMLKTSVPVDSFFSLLTSERVAKQFPVMTEAITQIRAKGLQTAVLSNNFYLPNQKSFLPLDRKQFDVIVESCMEGICKPDPRIYKLCLEQLGLQPSESIFLDDLGTNLKEAARLGIHTIKVNDPETAVKELEALLGFTLRVGVPNTRPVKKTMEIPKDSLQKYLKDLLGIQTTGPLELLQFDHGQSNPTYYIRLANRDLVLRKKPPGTLLPSAHAIEREFRIMKALANAGVPVPNVLDLCEDSSVIGTPFYVMEYCPGLIYKDPSLPGLEPSHRRAIYTAMNTVLCKIHSVDLQAVGLEDYGKQGDYIPRQVRTWVKQYRASETSTIPAMERLIEWLPLHLPRQQRTTVVHGDFRLDNLVFHPEEPEVLAVLDWELSTLGDPLADVAYSCLAHYLPSSFPVLRGINDCDLTQLGIPAAEEYFRMYCLQMGLPPTENWNFYMAFSFFRVAAILQGVYKRSLTGQASSTYAEQTGKLTEFVSNLAWDFAVKEGFRVFKEMPFTNPLTRSYHTWARPQSQWCPTGSRSYSSVPEASPAHTSRGGLVISPESLSPPVRELYHRLKHFMEQRVYPAEPELQSHQASAARWSPSPLIEDLKEKAKAEGLWNLFLPLEADPEKKYGAGLTNVEYAHLCELMGTSLYAPEVCNCSAPDTGNMELLVRYGTEAQKARWLIPLLEGKARSCFAMTEPQVASSDATNIEASIREEDSFYVINGHKWWITGILDPRCQLCVFMGKTDPHAPRHRQQSVLLVPMDTPGIKIIRPLTVYGLEDAPGGHGEVRFEHVRVPKENMVLGPGRGFEIAQGRLGPGRIHHCMRLIGFSERALALMKARVKSRLAFGKPLVEQGTVLADIAQSRVEIEQARLLVLRAAHLMDLAGNKAAALDIAMIKMVAPSMASRVIDRAIQAFGAAGLSSDYPLAQFFTWARALRFADGPDEVHRATVAKLELKHRI | 6 | 6 | 5 | 5 | – | –
ATP5O (protein, UniProt P48047 24-213, looked up) ATP synthase peripheral stalk …: FAKLVRPPVQVYGIEGRYATALYSAASKQNKLEQVEKELLRVAQILKEPKVAASVLNPYVKRSIKVKSLNDITAKERFSPLTTNLINLLAENGRLSNTQGVVSAFSTMMSVHRGEVPCTVTSASPLEEATLSELKTVLKSFLSQGQVLKLEAKTDPSILGGMIVRIGEKYVDMSVKTKIQKLGRAMREIV | 7 | 7 | 4 | 4 | – | –
ATP2A1 (protein, UniProt O14983 1-1001, looked up) Sarcoplasmic/endoplasmic …: MEAAHAKTTEECLAYFGVSETTGLTPDQVKRNLEKYGLNELPAEEGKTLWELVIEQFEDLLVRILLLAACISFVLAWFEEGEETITAFVEPFVILLILIANAIVGVWQERNAENAIEALKEYEPEMGKVYRADRKSVQRIKARDIVPGDIVEVAVGDKVPADIRILAIKSTTLRVDQSILTGESVSVIKHTEPVPDPRAVNQDKKNMLFSGTNIAAGKALGIVATTGVGTEIGKIRDQMAATEQDKTPLQQKLDEFGEQLSKVISLICVAVWLINIGHFNDPVHGGSWFRGAIYYFKIAVALAVAAIPEGLPAVITTCLALGTRRMAKKNAIVRSLPSVETLGCTSVICSDKTGTLTTNQMSVCKMFIIDKVDGDICLLNEFSITGSTYAPEGEVLKNDKPVRPGQYDGLVELATICALCNDSSLDFNEAKGVYEKVGEATETALTTLVEKMNVFNTDVRSLSKVERANACNSVIRQLMKKEFTLEFSRDRKSMSVYCSPAKSSRAAVGNKMFVKGAPEGVIDRCNYVRVGTTRVPLTGPVKEKIMAVIKEWGTGRDTLRCLALATRDTPPKREEMVLDDSARFLEYETDLTFVGVVGMLDPPRKEVTGSIQLCRDAGIRVIMITGDNKGTAIAICRRIGIFGENEEVADRAYTGREFDDLPLAEQREACRRACCFARVEPSHKSKIVEYLQSYDEITAMTGDGVNDAPALKKAEIGIAMGSGTAVAKTASEMVLADDNFSTIVAAVEEGRAIYNNMKQFIRYLISSNVGEVVCIFLTAALGLPEALIPVQLLWVNLVTDGLPATALGFNPPDLDIMDRPPRSPKEPLISGWLFFRYMAIGGYVGAATVGAAAWWFLYAEDGPHVNYSQLTHFMQCTEDNTHFEGIDCEVFEAPEPMTMALSVLVTIEMCNALNSLSENQSLLRMPPWVNIWLLGSICLSMSLHFLILYVDPLPMIFKLRALDLTQWLMVLKISLPVIGLDEILKFVARNYLEDPEDERRK | 7 | 6 | 7 | 7 | 2 | 2
COPA (protein, UniProt P53621 1-1224, looked up) Coatomer subunit alpha: MLTKFETKSARVKGLSFHPKRPWILTSLHNGVIQLWDYRMCTLIDKFDEHDGPVRGIDFHKQQPLFVSGGDDYKIKVWNYKLRRCLFTLLGHLDYIRTTFFHHEYPWILSASDDQTIRVWNWQSRTCVCVLTGHNHYVMCAQFHPTEDLVVSASLDQTVRVWDISGLRKKNLSPGAVESDVRGITGVDLFGTTDAVVKHVLEGHDRGVNWAAFHPTMPLIVSGADDRQVKIWRMNESKAWEVDTCRGHYNNVSCAVFHPRQELILSNSEDKSIRVWDMSKRTGVQTFRRDHDRFWVLAAHPNLNLFAAGHDGGMIVFKLERERPAYAVHGNMLHYVKDRFLRQLDFNSSKDVAVMQLRSGSKFPVFNMSYNPAENAVLLCTRASNLENSTYDLYTIPKDADSQNPDAPEGKRSSGLTAVWVARNRFAVLDRMHSLLIKNLKNEITKKVQVPNCDEIFYAGTGNLLLRDADSITLFDVQQKRTLASVKISKVKYVIWSADMSHVALLAKHAIVICNRKLDALCNIHENIRVKSGAWDESGVFIYTTSNHIKYAVTTGDHGIIRTLDLPIYVTRVKGNNVYCLDRECRPRVLTIDPTEFKFKLALINRKYDEVLHMVRNAKLVGQSIIAYLQKKGYPEVALHFVKDEKTRFSLALECGNIEIALEAAKALDDKNCWEKLGEVALLQGNHQIVEMCYQRTKNFDKLSFLYLITGNLEKLRKMMKIAEIRKDMSGHYQNALYLGDVSERVRILKNCGQKSLAYLTAATHGLDEEAESLKETFDPEKETIPDIDPNAKLLQPPAPIMPLDTNWPLLTVSKGFFEGTIASKGKGGALAADIDIDTVGTEGWGEDAELQLDEDGFVEATEGLGDDALGKGQEEGGGWDVEEDLELPPELDISPGAAGGAEDGFFVPPTKGTSPTQIWCNNSQLPVDHILAGSFETAMRLLHDQVGVIQFGPYKQLFLQTYARGRTTYQALPCLPSMYGYPNRNWKDAGLKNGVPAVGLKLNDLIQRLQLCYQLTTVGKFEEAVEKFRSILLSVPLLVVDNKQEIAEAQQLITICREYIVGLSVETERKKLPKETLEQQKRICEMAAYFTHSNLQPVHMILVLRTALNLFFKLKNFKTAATFARRLLELGPKPEVAQQTRKILSACEKNPTDAYQLNYDMHNPFDICAASYRPIYRGKPVEKCPLSGACYSPEFKGQICRVTTVTEIGKDVIGLRISPLQFR | 7 | 7 | 5 | 5 | – | –

— patent US20250283871A1, “COMPOSITIONS AND METHODS FOR MODULATING THE INTERACTION BETWEEN SS18-SSX FUSION ONCOPROTEIN AND NUCLEOSOMES” (Dana-Farber Cancer Institute, Inc., priority 2020, published 2025)
